Measured values as given in PubChem BioAssay AID485353 (National Center for Advancing Translational Sciences (NCATS), 2010).
The whole screen tested about 330,000 compounds, of which about 610 (0.18%) were called active. The shares of active, inactive and inconclusive entries below differ from those in the screen. The call rests on the fitted dose curve. A potency beside an inconclusive call is a rough fit, not a confirmed value.

assay: qHTS of Yeast-based Assay for SARS-CoV PLP; further: nearly all actives have a fitted effect of over 55% in size; on activity, positive = growth rescue: 0% is about no effect; settings: S. cerevisiae expressing SARS-CoV PLpro; Potency: growth rescue; activity, positive = growth rescue: at 32.9 µM (top of the series)
Potency means the concentration at half of the fitted maximal effect.

Compound	activity, positive = growth rescue	Potency
O=C(c1ccccc1Br)N1CCn2c1nc1ccccc12	inactive: -0.676%	–
O=S(=O)(NC(=NCCc1ccc(Cl)cc1)c1ccccc1Cl)c1cccs1	inactive: -1.5%	–
Cn1cccc1C(=S)N=P(C1CCCCC1)(N1CCOCC1)N1CCOCC1	–	active: 2.82 µM
O=C(N/N=C/c1c(Nc2cccc(C(F)(F)F)c2)nc2ccccn2c1=O)c1ccccc1[N+](=O)[O-]	–	inconclusive: 4.47 µM [activator, single point]
CCc1nnc(NC(=O)c2cc(-c3ccccn3)nc3ccc(Br)cc23)s1	inactive: 7.73%	–
CC1CCc2sc(C(=O)NN)cc2C1 (stereo unspecified)	–	inconclusive: 20 µM [activator, single point]
Cc1ccc(OCC(O)CN2CCc3ccccc3C2)c(C)c1 (stereo unspecified)	inactive: 1.15%	–
COc1cccc(Cn2c(=O)c3[nH]cnc3n(-c3ccccc3C)c2=O)c1	–	inconclusive: 3.55 µM [activator, single point]
CC1(C)C(=O)OC(c2cccc([N+](=O)[O-])c2)C2(CCCCC2)C1=O (stereo unspecified)	inactive: 0.554%	–
Cc1c(NC(=O)C(C)OC(=O)CCC2CCCC2)c(=O)n(-c2ccccc2)n1C (stereo unspecified)	inactive: -1.08%	–
CCCCn1c(CNC(=O)Cc2ccccc2)nc2ccccc21	inactive: -2.19%	–
Oc1ccc(N2CCN(c3nc(-c4cccs4)nc4ccccc34)CC2)cc1	inactive: -5.73%	–
CCOC(=O)c1c(C)[nH]c(C(=O)N/N=C\c2ccccc2O)c1C	–	inconclusive: 3.55 µM [activator, single point]
O=C1c2ccccc2C(=O)N1CNc1ccccc1	–	inconclusive: 4.47 µM [activator, single point]
CC(=O)c1ccc(NC(=O)C(C)Sc2nnc(-c3ccncc3)n2C2CC2)cc1 (stereo unspecified)	inactive: -4.31%	–
Cc1cccc(-n2ncc3c2CCCC3NC(=O)CCN2CCCO2)c1C (stereo unspecified)	–	inconclusive: 0.398 µM [activator, full curve, poor fit]
CN1CCC(=NNc2ccc(S(=O)(=O)N3CCOCC3)cc2[N+](=O)[O-])CC1	–	inconclusive: 15.8 µM [activator, single point]
O=C(NC(=S)Nc1ccccc1F)C1CCCCC1	–	inconclusive: 3.16 µM [activator, single point]
COc1ccc(C(=O)C2CCCN(Cc3cc(C)c(O)c(C)c3)C2)c(OC)c1 (stereo unspecified)	inactive: 11.3%	–
COc1ccc(C(CC(=O)N2CCOCC2)c2c(O)cc(OC)cc2OC)cc1 (stereo unspecified)	inactive: -1.73%	–
O=C(NCc1ccccc1)C1CCC(CNc2c(N3CCCCC3)c(=O)c2=O)CC1 (stereo unspecified)	inactive: -8.53%	–
COc1ccc(S(=O)(=O)NCCOc2ccc(Cl)cc2)cc1	–	inconclusive: 20 µM [activator, single point]
Cc1cnc(NC(=O)Nc2ccccc2)c(C)n1	inactive: -3.77%	–
O=C(Oc1ccc(-c2ccccc2)cc1)N1CCOCC1	inactive: -0.323%	–
Cc1ccc(NC(=O)c2cc(N3C(=O)CCC3=O)ccc2N2CCCCC2)cc1	inactive: 0.429%	–
CCCCCCn1c(SCC(=O)c2ccccc2)nc2c1c(=O)[nH]c(=O)n2C	–	inconclusive: 20 µM [activator, single point]

Compound	activity, positive = growth rescue	Potency
C/C(=N\NC(=O)c1ccc(C)cc1)c1c(C)[nH]n(-c2ccccc2)c1=O	–	inconclusive: 11.2 µM [activator, single point]
Cc1onc(-c2ccccc2)c1C(=O)N1CCN(S(=O)(=O)c2ccc3c(c2)OCCO3)CC1	–	inconclusive: 3.55 µM [activator, single point]
CCc1ccc2nc(N(CCCN(C)C)C(=O)c3ccc(S(=O)(=O)N4CCc5ccccc5C4)cc3)sc2c1	–	inconclusive: 20 µM [activator, single point]
Cc1c(Cl)cccc1N/C(SCC(=O)N1CCCCCC1)=C(/C#N)c1nc2ccccc2s1	inactive: 4.73%	–
O=C1NC(=O)C2(CCCc3ccccc32)N1 (stereo unspecified)	–	inconclusive: 3.98 µM [activator, single point]
O=C(Nc1ccc(Cl)c(S(=O)(=O)N2CCCCC2)c1)c1ccncc1	–	active: 5.01 µM
CCn1cc(C(=O)NCc2ccc3c(c2)OCO3)c(=O)c2ccc(C)nc21	–	inconclusive: 4.47 µM [activator, single point]
CC(C)Oc1ccc(C(=O)Nc2ccc(N3CCCC3)cc2)cc1	inactive: -8.19%	–
CCN1CCCC1CN(Cc1cc2c(C)cc(C)cc2[nH]c1=O)C(=O)NC1CCCCC1 (stereo unspecified)	–	inconclusive: 4.47 µM [activator, single point]
CCCC1CC(CSC(=N)N)OC1=O (stereo unspecified)	–	active: 14.1 µM
COC(=O)c1cn(NC(=O)/C=C/c2ccc(OC)c(OC)c2)c(=O)c2ccccc12	–	inconclusive: 20 µM [activator, single point]
CCCCOC(=O)Cn1c(=N)n(CCC)c2ccccc21	–	inconclusive: 0.355 µM [activator, partial curve, poor fit]
CCCn1c(-c2cccc([N+](=O)[O-])c2)nc2c1c(=O)[nH]c(=O)n2Cc1ccccc1	inactive: -15.7%	–
CCCCOC(=O)C1=C(C)NC(=O)NC1c1ccc([N+](=O)[O-])s1 (stereo unspecified)	inactive: 10.6%	–
COCCNC(=O)c1oc2ccc3c(c2c1C)C(O)CC(C)(C)O3 (stereo unspecified)	–	inconclusive: 3.98 µM [activator, single point]
Cc1ccc2c(c1)-c1nc3ccccc3cc1C2=NC1CCCCC1	–	inconclusive: 22.4 µM [activator, single point]
O=C(O)CCCNC(=O)/C(=C\c1ccc(Cl)cc1)NC(=O)c1ccccc1Br	inactive: -1.42%	–
COCCn1c(C)cc(C(=O)COC(=O)c2n[nH]c3ccccc23)c1C	–	inconclusive: 20 µM [activator, single point]
COc1ccc(C2=NN(C(=O)c3cccnc3)C(c3ccccc3)C2)cc1 (stereo unspecified)	–	inconclusive: 20 µM [activator, single point]
Cc1cccc(C(=O)OCC(=O)N(C)CC(=O)Nc2ccc(Cl)c(C(F)(F)F)c2)c1	inactive: -4.08%	–
O=C(O)COc1ccc(S(=O)(=O)NCCc2ccccc2)cc1	–	inconclusive: 12.6 µM [activator, single point]
Cn1cc(Br)c(C(=O)Nc2sc3c(c2C(N)=O)CCCC3)n1	inactive: -5.05%	–
COC(=O)c1ccccc1NC(=O)COC(=O)CO/N=C(\C)c1ccc2c(c1)OCO2	–	inconclusive: 14.1 µM [activator, single point]
CC(C)Cc1c2c([nH]c(=S)c1C#N)CCCC2	–	inconclusive: 22.4 µM [activator, single point]
CN(C)CCC#CC(O)(c1ccccc1)c1ccccc1	inactive: 3.1%	–
Cc1ncc(CO)c(/C=N/NC(=O)c2cc(O)c(O)c(O)c2)c1O	–	inconclusive: 22.4 µM [activator, single point]

In the list so far, these contain a COOH group.
Compound	activity, positive = growth rescue	Potency
O=C(O)CCCNC(=O)/C(=C\c1ccc(Cl)cc1)NC(=O)c1ccccc1Br	inactive: -1.42%	–
O=C(O)COc1ccc(S(=O)(=O)NCCc2ccccc2)cc1	–	inconclusive: 12.6 µM [activator, single point]

Next compounds.

Compound	activity, positive = growth rescue	Potency
O=C(CSc1nc(C2CCCCC2)n(-c2ccccc2)n1)NCC(F)(F)F	–	inconclusive: 22.4 µM [activator, single point]
COc1ccc(C2Nc3ccccc3C(=O)N2O)cc1CN1CCOCC1 (stereo unspecified)	–	active: 22.4 µM
CCOc1ccc(CNc2nnnn2C)cc1	–	inconclusive: 2.24 µM [activator, single point]
Cc1ccc(F)cc1NC(=S)NCCc1ccccc1	–	inconclusive: 20 µM [activator, single point]
CC1(OC(=O)C2CCCC2)C(=O)C=C2C=C(c3ccsc3)N(Cc3ccccc3)C=C2C1=O (stereo unspecified)	inactive: -0.278%	–
O=C(O)c1ccc(NC2=C(N3CCOCC3)C(=O)c3ccccc3C2=O)cc1	inactive: -6.05%	–
Cc1cccc(NC(=S)N2CCN(S(=O)(=O)c3ccccc3)CC2)c1	–	inconclusive: 4.47 µM [activator, single point]
O=[N+]([O-])c1ccc2nc(SCc3cn4ccccc4n3)[nH]c2c1	–	inconclusive: 20 µM [activator, single point]
CC(C)C(=O)Nc1nnc(Sc2ccc(N(C)C)cc2)s1	–	inconclusive: 10 µM [activator, single point]
Oc1ccc(CNc2ccccc2)c2cccnc12	–	active: 10 µM
CCCCNC(=O)CN1C(=O)NC(CCc2ccccc2)C1=O (stereo unspecified)	inactive: -1.65%	–
COc1cccc(NC(=O)CSc2nc3c(sc4ccccc43)c(=O)n2CCCN2CCCC2)c1	–	inconclusive: 20 µM [activator, single point]
CC(/C=N/Nc1nc(C)cc(C)n1)=C\c1ccc(C(C)C)cc1	–	active: 11.2 µM
CCCOc1ccc(N2C(=O)CC(N(CCOC34CC5CC(CC(C5)C3)C4)C(C)=O)C2=O)cc1 (stereo unspecified)	inactive: -1.56%	–
CCOc1ccc(S(=O)(=O)N2CCN(C(=O)C3CSC4(C)CCC(=O)N34)CC2)cc1 (stereo unspecified)	inactive: 4.08%	–
COc1ccc(Cl)cc1S(=O)(=O)N1CCC(C(=O)NC2CC2)CC1	inactive: 3.92%	–
Nc1ncc(S(=O)(=O)c2ccc(Cl)cc2)c(N)n1	inactive: 0.0073%	–
O=C(NN1C(=O)C2C3C=CC(O3)C2C1=O)c1cccc(O)c1 (stereo unspecified)	inactive: 18.9%	–
COc1cccc2sc(Nc3nc(-c4ccncc4)cs3)nc12	inactive: -5.06%	–
COc1ccccc1NC(=O)c1ccc(NC(=O)COC(=O)CC(NC(=O)c2ccccc2Cl)c2ccccc2)cc1 (stereo unspecified)	–	inconclusive: 0.355 µM [activator, partial curve, poor fit]
c1coc(CNc2ncnc3ccccc23)c1	–	inconclusive: 17.8 µM [activator, single point]
C/C(=N\NC(=O)c1ccc(OC2CCCC2)cc1)c1ccc(O)cc1	–	inconclusive: 14.1 µM [activator, single point]
COc1cc(C)nc(N2CCCC(C(=O)Nc3cccc(Cl)c3C)C2)n1 (stereo unspecified)	–	inconclusive: 4.47 µM [activator, partial curve]
Cc1noc(C)c1S(=O)(=O)N(CC(=O)NC(C)c1ccccc1)c1ccc(C(C)C)cc1 (stereo unspecified)	–	inconclusive: 12.6 µM [activator, single point]
